Test results: the supplement of paper PMC10849652
The list shows a part of the results.

Protein sequences, listed by entry. Tags and fused reporters are not part of them. Lines headed by an entry give the natural chain unless they say otherwise; changes in a name come on top.
UniProt Q14160: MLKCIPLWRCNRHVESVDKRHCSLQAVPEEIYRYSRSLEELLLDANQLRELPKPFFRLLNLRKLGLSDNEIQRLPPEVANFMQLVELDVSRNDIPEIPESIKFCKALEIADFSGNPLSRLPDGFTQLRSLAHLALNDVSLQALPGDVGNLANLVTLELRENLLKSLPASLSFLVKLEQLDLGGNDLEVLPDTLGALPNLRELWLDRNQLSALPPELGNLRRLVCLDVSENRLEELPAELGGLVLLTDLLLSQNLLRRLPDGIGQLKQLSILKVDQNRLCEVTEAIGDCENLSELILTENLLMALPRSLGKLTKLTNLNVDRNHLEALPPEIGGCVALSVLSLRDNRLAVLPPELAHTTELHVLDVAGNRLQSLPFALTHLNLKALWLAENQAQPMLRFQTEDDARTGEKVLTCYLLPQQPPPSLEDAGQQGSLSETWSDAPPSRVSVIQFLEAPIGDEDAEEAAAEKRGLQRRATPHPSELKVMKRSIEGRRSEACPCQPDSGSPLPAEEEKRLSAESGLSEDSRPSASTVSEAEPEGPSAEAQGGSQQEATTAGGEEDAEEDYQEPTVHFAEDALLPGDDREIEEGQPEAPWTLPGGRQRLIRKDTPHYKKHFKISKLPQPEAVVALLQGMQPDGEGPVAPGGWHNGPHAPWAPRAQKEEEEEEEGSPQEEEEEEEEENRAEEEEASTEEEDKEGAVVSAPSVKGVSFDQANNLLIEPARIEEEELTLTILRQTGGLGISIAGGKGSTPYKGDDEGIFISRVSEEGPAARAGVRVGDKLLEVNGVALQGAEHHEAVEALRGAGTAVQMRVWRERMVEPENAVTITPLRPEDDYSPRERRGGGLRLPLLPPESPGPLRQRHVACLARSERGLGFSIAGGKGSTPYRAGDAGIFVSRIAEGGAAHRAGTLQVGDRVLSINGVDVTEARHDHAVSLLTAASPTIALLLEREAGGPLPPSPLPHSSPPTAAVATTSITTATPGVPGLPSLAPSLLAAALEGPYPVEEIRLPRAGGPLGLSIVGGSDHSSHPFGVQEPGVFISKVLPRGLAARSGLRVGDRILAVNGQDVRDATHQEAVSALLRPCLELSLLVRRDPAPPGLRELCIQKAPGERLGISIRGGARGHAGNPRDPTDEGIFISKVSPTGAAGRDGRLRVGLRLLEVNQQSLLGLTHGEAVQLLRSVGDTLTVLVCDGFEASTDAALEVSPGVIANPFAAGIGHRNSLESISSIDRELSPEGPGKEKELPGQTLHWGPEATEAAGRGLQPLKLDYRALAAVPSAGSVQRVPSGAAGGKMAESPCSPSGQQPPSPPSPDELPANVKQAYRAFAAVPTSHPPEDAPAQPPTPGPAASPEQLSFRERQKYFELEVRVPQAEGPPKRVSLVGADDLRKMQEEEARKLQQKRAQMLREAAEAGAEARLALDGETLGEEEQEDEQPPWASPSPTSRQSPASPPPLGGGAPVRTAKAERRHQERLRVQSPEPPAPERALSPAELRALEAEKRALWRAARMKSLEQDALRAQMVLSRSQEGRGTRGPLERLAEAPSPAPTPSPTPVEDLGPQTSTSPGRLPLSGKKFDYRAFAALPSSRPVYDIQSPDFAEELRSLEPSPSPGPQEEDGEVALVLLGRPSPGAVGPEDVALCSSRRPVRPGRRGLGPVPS
UniProt Q9NRG7: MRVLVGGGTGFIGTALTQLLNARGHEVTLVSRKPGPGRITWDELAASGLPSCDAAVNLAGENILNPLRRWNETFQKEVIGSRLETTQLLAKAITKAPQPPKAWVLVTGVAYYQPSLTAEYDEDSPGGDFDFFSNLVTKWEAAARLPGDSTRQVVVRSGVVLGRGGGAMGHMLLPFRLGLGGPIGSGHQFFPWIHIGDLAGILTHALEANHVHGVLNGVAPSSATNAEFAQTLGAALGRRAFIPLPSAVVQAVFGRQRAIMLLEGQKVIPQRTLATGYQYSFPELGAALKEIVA
UniProt Q99470: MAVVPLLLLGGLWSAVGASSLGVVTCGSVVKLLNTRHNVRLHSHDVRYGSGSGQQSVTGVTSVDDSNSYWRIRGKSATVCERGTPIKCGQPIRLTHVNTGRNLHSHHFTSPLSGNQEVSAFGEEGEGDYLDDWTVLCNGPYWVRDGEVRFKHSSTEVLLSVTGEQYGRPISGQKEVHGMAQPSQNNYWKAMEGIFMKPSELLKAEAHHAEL
UniProt Q96BY9: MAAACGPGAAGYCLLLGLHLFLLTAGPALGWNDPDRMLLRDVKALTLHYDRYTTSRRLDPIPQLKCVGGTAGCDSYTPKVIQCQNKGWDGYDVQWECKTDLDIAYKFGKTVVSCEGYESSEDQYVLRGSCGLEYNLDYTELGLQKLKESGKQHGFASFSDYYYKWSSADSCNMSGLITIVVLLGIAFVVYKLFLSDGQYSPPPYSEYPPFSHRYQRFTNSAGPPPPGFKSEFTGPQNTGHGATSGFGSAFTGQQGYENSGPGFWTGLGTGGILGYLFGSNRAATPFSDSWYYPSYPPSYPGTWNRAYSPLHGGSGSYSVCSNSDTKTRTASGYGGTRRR
UniProt O14828: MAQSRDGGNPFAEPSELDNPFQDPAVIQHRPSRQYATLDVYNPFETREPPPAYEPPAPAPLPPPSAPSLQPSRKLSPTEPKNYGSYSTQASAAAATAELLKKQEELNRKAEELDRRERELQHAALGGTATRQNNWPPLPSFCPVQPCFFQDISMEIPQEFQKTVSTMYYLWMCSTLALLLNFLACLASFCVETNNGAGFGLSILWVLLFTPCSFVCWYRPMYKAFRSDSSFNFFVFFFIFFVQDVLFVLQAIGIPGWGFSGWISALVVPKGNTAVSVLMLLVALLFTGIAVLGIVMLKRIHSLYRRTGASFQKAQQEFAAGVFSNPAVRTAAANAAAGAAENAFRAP
UniProt Q9Y3V2: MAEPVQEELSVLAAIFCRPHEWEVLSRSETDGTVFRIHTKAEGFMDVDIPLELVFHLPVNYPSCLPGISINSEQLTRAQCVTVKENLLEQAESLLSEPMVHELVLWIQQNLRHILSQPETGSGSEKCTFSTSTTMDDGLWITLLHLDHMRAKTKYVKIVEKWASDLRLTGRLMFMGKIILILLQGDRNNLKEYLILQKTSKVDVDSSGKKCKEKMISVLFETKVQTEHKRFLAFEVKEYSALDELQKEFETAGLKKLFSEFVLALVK
UniProt Q9Y2B1: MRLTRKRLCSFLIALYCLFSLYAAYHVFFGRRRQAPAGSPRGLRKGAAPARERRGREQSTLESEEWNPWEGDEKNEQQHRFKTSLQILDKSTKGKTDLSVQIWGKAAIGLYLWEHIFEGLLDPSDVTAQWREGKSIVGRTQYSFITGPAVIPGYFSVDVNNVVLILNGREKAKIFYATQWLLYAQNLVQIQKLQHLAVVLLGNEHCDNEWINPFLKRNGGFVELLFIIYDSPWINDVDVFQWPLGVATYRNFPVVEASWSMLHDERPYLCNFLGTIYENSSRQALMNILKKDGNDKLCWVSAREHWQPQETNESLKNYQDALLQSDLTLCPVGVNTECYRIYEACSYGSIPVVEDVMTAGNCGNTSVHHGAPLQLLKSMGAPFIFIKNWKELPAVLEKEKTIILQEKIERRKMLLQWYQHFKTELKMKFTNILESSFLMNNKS
UniProt O75556: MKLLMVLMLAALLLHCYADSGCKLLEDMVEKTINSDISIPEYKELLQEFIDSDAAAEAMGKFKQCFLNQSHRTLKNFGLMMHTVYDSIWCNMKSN
UniProt P23297: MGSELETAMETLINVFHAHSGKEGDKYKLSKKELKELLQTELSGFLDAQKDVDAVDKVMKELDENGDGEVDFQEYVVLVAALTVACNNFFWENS
UniProt Q6UWP8: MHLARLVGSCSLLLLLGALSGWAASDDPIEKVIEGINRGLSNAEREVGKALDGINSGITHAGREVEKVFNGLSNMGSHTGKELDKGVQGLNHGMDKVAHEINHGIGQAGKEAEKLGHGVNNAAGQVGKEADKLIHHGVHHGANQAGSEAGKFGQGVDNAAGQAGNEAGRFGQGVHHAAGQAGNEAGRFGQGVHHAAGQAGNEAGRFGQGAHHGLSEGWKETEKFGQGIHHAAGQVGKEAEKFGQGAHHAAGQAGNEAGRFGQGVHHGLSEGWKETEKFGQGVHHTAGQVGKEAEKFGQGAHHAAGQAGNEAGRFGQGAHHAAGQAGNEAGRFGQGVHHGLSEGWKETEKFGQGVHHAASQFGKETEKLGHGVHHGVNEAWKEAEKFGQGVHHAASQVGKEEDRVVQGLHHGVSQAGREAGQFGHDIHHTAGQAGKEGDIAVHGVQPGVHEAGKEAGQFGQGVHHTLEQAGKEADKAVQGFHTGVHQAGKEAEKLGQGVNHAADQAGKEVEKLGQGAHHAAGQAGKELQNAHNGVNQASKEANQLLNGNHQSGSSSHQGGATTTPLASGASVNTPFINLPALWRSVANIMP
UniProt P28702: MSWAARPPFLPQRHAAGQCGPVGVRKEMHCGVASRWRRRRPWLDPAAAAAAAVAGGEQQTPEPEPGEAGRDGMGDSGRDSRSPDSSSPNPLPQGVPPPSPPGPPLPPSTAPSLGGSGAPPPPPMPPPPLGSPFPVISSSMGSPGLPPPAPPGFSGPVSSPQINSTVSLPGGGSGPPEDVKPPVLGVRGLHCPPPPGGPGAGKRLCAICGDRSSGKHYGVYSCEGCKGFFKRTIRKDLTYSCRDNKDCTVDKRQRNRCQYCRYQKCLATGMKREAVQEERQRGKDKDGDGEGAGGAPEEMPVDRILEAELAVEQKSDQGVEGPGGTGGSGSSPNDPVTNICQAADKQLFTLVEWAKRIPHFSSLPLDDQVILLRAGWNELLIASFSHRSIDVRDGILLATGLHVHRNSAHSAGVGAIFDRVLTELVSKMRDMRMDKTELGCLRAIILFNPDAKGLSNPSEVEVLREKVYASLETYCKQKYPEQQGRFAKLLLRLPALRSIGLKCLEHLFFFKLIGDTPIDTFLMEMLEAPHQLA
UniProt O95969: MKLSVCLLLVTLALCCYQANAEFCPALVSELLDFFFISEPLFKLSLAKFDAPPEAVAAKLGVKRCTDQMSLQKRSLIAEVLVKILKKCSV
UniProt Q9NPB0: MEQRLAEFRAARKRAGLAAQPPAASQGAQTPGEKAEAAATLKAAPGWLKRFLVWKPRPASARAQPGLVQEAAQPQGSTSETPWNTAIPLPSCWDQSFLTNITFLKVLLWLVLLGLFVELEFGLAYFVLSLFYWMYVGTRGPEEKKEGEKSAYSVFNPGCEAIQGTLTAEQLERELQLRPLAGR
UniProt Q9UPW6: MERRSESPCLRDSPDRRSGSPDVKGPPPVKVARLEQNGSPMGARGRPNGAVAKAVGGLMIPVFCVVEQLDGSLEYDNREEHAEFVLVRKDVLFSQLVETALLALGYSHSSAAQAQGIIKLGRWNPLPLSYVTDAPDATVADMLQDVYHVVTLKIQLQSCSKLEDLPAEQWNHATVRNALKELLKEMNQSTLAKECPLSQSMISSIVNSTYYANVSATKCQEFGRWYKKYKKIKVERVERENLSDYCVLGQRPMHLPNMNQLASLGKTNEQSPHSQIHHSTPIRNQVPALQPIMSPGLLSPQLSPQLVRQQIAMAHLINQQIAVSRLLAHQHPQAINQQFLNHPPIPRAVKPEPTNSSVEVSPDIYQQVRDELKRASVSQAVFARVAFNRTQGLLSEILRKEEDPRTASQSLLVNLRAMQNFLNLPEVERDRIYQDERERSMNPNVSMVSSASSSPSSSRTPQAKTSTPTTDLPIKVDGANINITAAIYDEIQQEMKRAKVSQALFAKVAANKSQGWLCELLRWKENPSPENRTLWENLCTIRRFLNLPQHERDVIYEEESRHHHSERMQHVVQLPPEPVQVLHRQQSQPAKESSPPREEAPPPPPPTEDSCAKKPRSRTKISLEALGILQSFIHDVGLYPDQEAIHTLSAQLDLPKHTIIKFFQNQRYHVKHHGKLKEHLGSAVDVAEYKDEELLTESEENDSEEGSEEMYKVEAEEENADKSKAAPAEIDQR
UniProt O00560: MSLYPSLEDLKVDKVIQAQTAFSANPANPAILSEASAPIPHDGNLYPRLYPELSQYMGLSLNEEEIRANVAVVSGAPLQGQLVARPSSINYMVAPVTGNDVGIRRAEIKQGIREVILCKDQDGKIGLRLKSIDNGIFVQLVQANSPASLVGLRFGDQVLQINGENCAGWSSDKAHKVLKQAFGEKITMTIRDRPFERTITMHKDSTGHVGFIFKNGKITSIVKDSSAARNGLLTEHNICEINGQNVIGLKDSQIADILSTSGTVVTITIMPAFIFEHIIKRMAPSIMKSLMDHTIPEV
UniProt P29034: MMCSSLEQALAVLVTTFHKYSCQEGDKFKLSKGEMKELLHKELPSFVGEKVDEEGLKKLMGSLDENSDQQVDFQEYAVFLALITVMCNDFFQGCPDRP
UniProt Q96IW7: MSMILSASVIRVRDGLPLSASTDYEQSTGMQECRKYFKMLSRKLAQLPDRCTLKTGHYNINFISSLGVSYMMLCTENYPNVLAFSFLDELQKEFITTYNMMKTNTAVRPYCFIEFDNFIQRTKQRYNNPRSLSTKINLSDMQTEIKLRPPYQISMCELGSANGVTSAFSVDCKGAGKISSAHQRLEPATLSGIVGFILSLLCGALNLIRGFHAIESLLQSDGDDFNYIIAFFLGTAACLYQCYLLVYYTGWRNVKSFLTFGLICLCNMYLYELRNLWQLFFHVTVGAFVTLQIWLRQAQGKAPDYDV

How the values were obtained:
Experiment in all cases: log2 fold change, soluble protein after heating vs DMSO (PISA); higher = thermal stabilisation; K562 cells, 10 uM, 30 min; active = over 0.2 and 3.5 SD of the protein, either way, in both replicates (recomputed)
[1] = compound: COC1=CC=C(C=C1)CN2C=CC3=C2C=C(C=C3)C(=O)NO
In short: (§1)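 For each measurement, 10 μM compound was applied for 30 min to K562 cells at 2×10^6 cells/mL. Aliquots were heated for 3 min across 48°C-58°C, pooled, and extracted in PBS with 0.5% NP-40 at 4°C; the supernatant after 21,000xg for 90 min was soluble protein. This was quantified by TMTpro 16plex LC-MS/MS with channel sums equalised, and thermal stability was reported relative to control samples from duplicates, on a log2 fold-change scale.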

[2] = compound: COc1cc(C(=O)O)ccc1NC(=O)[C@@H]1N[C@@H](CC(C)(C)C)[C@](C#N)(c2ccc(Cl)cc2F)[C@H]1c1cccc(Cl)c1F [idasanutlin]
In short: as §1

[3] = compound: COc1cc2nc(-c3cc(F)ccc3O)nc(N[C@@H]3CNC[C@H]3C(C)(C)O)c2cc1OC
In short: as §1

[4] = compound: COc1cc2ncnc(Nc3ccc(F)c(Cl)c3)c2cc1OCCCN1CCOCC1 [gefitinib]
In short: as §1

[5] = compound: CS(=O)(=O)CCNCc1ccc(-c2ccc3ncnc(Nc4ccc(OCc5cccc(F)c5)c(Cl)c4)c3c2)o1 [lapatinib]
In short: as §1

[6] = compound: CO[C@H]1C[C@@H]2CC[C@@H](C)[C@@](O)(O2)C(=O)C(=O)N2CCCC[C@H]2C(=O)O[C@H]([C@H](C)C[C@@H]2CC[C@H](n3cnnn3)[C@H](OC)C2)CC(=O)[C@H](C)/C=C(\C)[C@@H](O)[C@@H](OC)C(=O)[C@H](C)C[C@H](C)/C=C/C=C/C=C/1C [zotarolimus]
In short: as §1

[7] = compound: COc1cc(Nc2ncc3c(n2)-c2ccc(Cl)cc2C(c2c(F)cccc2OC)=NC3)ccc1C(=O)O [alisertib]
In short: as §1

[8] = compound: COc1cccc2cc(-c3nc([C@H]4CC[C@H](C(=O)O)CC4)n4ncnc(N)c34)[nH]c12
In short: as §1

[9] = compound: CS(=O)(=O)N1CCN(Cc2cc3nc(-c4cccc5[nH]ncc45)nc(N4CCOCC4)c3s2)CC1 [pictilisib]
In short: as §1

[10] = compound: CON(C)C(=O)N1N=C(c2cc(F)ccc2F)S[C@@]1(CCCN)c1ccccc1 [filanesib]
In short: as §1

Measured: log2 fold change

S100A4 (UniProt P26447)
inactive: [1] 0.077 | [2] 0.101 | [3] 0.033 | [4] 0.008 | [5] 0.098

SCRIB isoform 3 (UniProt Q14160)
inactive: [1] -0.223 | [6] -0.152 | [7] 0.389 | [8] -0.461 | [9] -0.021

RRP36 (UniProt Q96EU6)
inactive: [10] 0.372 | [6] -0.054 | [2] 0.203 | [7] -0.217 | [3] 0.01 | [4] -0.042 | [8] -0.268 | [5] 0.088 | [9] -0.181

SDR39U1 (UniProt Q9NRG7)
inactive: [10] -0.043 | [6] -0.611 | [2] -0.346 | [7] -0.246 | [3] -0.165 | [4] 0.286 | [8] -0.258 | [5] 1.16 | [9] 0.087

SAFB2 (UniProt K7EQU4)
inactive: [1] 0.115 | [4] -0.126

SDF2 (UniProt Q99470)
inactive: [1] -0.165 | [3] -0.222 | [5] 0.374 | [9] 0.025

SAP130 isoform 3 (UniProt Q9H0E3)
inactive: [1] -0.024 | [6] 0.201 | [2] 0.179 | [9] -0.155

SCYL3 isoform 2 (UniProt Q8IZE3)
inactive: [1] 0.017 | [6] 0.008 | [2] -0.117 | [7] 0.063 | [3] 0.039 | [4] 0.063 | [8] 0.032 | [5] -0.084 | [9] 0.018

SCAMP2 (UniProt O15127)
inactive: [10] 0.036 | [6] 0.171 | [2] -0.1 | [7] -0.087 | [3] -0.035 | [4] 0.036 | [8] 0.042 | [5] 0.009 | [9] 0.199

SARAF (UniProt Q96BY9)
inactive: [10] 0.266 | [6] 0.043 | [2] 0.104 | [3] -0.439 | [5] 0.054 | [9] -0.007

SCN4A (UniProt P35499)
inactive: [2] 0.219 | [7] -0.076 | [8] 0.146

SDHD (UniProt O14521)
inactive: [10] 0.062 | [6] -0.032 | [2] -0.115 | [7] 0.026 | [3] -0.057 | [4] 0.062 | [8] 0.012 | [5] 0.005 | [9] 0.218

SDHB, A0A087WXX8
inactive: [6] -0.049 | [2] 0.076 | [7] -0.127 | [3] 0.077 | [4] -0.087 | [8] -0.024 | [5] -0.103 | [9] 0.144

RTL10 (UniProt Q7L3V2)
inactive: [6] 0.032 | [2] -0.199 | [7] 0.95 | [3] -0.124 | [8] 0.064 | [5] 0.114 | [9] -0.159

SCAMP3 isoform 2 (UniProt O14828)
inactive: [1] 0.027 | [7] -0.16 | [3] 0.003 | [4] 0.057 | [8] 0.154 | [5] 0.051

RWDD3 (UniProt Q9Y3V2)
inactive: [10] 0.106

RXYLT1 (UniProt Q9Y2B1)
inactive: [3] 0.42 | [4] 0.144 | [5] 0.316

S100A14 (UniProt Q9HCY8)
inactive: [2] 0.282 | [7] 1.5 | [4] 0.289 | [8] -0.026

SCGB2A1 (UniProt O75556)
inactive: [7] 0.122 | [4] 0.298 | [8] -0.163

S100A1 (UniProt P23297)
inactive: [1] 0.24 | [10] -0.024 | [4] 0.029

SBSN (UniProt Q6UWP8)
inactive: [2] 0.008 | [7] 1.15 | [4] 0.246 | [8] -0.246

RXRB isoform 3 (UniProt P28702)
inactive: [10] 0.108

RTL8C (UniProt A6ZKI3)
inactive: [1] 0.041 | [3] 0.147 | [5] -0.049 | [9] 0.084

SCGB1D2 (UniProt O95969)
inactive: [10] 0.059 | [6] -0.037 | [2] 0.072 | [7] -0.047 | [3] -0.098 | [4] 0.347 | [8] 0.145 | [5] -0.084

2 successive records from above, quoted:
SDHB, A0A087WXX8
inactive: [6] -0.049 | [2] 0.076 | [7] -0.127 | [3] 0.077 | [4] -0.087 | [8] -0.024 | [5] -0.103 | [9] 0.144

RTL10 (UniProt Q7L3V2)
inactive: [6] 0.032 | [2] -0.199 | [7] 0.95 | [3] -0.124 | [8] 0.064 | [5] 0.114 | [9] -0.159

Next results.

S100A16 (UniProt Q96FQ6)
inactive: [1] 0.349 | [7] 1.17 | [4] 0.383 | [8] -0.051

SAYSD1 (UniProt Q9NPB0)
inactive: [10] -0.011 | [6] -0.016 | [7] 0.129 | [3] -0.025 | [8] 0.16 | [5] -0.065

SATB2 (UniProt Q9UPW6)
inactive: [9] 0.095

SDC3 (UniProt O75056)
inactive: [10] 0.081 | [6] -0.045 | [2] 0.166 | [4] 0.115 | [9] -0.674

SDCBP isoform 2 (UniProt O00560)
inactive: [10] -0.08 | [7] -0.236 | [3] 0.045 | [4] -0.054 | [8] 0.034 | [5] -0.04 | [9] 0.228

RXRG (UniProt P48443)
inactive: [9] -0.06

S100A2 (UniProt P29034)
inactive: [6] 0.048 | [2] -0.176 | [7] 0.731 | [3] 0.258 | [4] 0.572 | [8] -0.083 | [5] -0.041

SBF2 (UniProt Q86WG5)
inactive: [9] 0.04

SCAI isoform 2 (UniProt Q8N9R8)
inactive: [1] -0.078 | [6] 0.047 | [2] -0.153

SEC22A (UniProt Q96IW7)
inactive: [1] 0.179 | [6] -0.085 | [2] -0.121 | [3] 0.076 | [5] 0.058 | [9] 0.116

SC5D (UniProt O75845)
inactive: [10] -0.065 | [6] -0.07 | [2] -0.144 | [7] -0.017 | [3] 0.011 | [4] 0.002 | [8] 0.071 | [5] -0.046 | [9] 0.108

RSL24D1 (UniProt Q9UHA3)
inactive: [10] 0.259 | [2] 0.106 | [7] -0.086 | [4] -0.031 | [8] -0.183

SEC14L1 isoform 2 (UniProt Q92503)
inactive: [10] 0.04 | [6] -0.353 | [9] 0.072

RTN4 isoform 5 (UniProt Q9NQC3)
inactive: [1] -0.095 | [6] 0.027 | [2] 0.027 | [3] -0.049 | [4] 0.09 | [5] 0.01 | [9] -0.03

S100A10 (UniProt P60903)
inactive: [10] -0.143 | [6] -0.045 | [2] 0.165 | [3] 0.093 | [4] 0.305 | [5] 0.01 | [9] -0.056

SCAF1 (UniProt Q9H7N4)
inactive: [10] 0.009
